These are yes or no findings as the source states them, for the method shown. In cells and extracts the contact can be indirect. Some entries that bind do so weakly or less than the wild type.
Molecular target: MAB21L4 (endogenous) (human (endogenous in human skin and skin organoids)) (UniProt Q08AI8)
Experiment: proximity ligation

Protein sequences, listed by entry. Tags and fused reporters are not part of them.
UniProt Q08AI8: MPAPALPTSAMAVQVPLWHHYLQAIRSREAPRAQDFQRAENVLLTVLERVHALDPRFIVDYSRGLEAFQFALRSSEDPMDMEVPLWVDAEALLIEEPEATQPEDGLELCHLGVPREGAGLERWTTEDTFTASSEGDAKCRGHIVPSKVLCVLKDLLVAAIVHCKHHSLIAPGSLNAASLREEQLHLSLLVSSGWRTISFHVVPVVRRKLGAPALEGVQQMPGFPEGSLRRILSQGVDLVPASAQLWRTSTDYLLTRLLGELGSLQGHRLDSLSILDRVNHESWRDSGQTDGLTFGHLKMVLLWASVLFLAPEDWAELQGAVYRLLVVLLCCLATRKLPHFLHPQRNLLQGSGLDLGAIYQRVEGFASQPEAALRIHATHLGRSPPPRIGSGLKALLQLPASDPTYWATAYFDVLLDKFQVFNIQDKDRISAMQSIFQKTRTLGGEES
UniProt Q92817: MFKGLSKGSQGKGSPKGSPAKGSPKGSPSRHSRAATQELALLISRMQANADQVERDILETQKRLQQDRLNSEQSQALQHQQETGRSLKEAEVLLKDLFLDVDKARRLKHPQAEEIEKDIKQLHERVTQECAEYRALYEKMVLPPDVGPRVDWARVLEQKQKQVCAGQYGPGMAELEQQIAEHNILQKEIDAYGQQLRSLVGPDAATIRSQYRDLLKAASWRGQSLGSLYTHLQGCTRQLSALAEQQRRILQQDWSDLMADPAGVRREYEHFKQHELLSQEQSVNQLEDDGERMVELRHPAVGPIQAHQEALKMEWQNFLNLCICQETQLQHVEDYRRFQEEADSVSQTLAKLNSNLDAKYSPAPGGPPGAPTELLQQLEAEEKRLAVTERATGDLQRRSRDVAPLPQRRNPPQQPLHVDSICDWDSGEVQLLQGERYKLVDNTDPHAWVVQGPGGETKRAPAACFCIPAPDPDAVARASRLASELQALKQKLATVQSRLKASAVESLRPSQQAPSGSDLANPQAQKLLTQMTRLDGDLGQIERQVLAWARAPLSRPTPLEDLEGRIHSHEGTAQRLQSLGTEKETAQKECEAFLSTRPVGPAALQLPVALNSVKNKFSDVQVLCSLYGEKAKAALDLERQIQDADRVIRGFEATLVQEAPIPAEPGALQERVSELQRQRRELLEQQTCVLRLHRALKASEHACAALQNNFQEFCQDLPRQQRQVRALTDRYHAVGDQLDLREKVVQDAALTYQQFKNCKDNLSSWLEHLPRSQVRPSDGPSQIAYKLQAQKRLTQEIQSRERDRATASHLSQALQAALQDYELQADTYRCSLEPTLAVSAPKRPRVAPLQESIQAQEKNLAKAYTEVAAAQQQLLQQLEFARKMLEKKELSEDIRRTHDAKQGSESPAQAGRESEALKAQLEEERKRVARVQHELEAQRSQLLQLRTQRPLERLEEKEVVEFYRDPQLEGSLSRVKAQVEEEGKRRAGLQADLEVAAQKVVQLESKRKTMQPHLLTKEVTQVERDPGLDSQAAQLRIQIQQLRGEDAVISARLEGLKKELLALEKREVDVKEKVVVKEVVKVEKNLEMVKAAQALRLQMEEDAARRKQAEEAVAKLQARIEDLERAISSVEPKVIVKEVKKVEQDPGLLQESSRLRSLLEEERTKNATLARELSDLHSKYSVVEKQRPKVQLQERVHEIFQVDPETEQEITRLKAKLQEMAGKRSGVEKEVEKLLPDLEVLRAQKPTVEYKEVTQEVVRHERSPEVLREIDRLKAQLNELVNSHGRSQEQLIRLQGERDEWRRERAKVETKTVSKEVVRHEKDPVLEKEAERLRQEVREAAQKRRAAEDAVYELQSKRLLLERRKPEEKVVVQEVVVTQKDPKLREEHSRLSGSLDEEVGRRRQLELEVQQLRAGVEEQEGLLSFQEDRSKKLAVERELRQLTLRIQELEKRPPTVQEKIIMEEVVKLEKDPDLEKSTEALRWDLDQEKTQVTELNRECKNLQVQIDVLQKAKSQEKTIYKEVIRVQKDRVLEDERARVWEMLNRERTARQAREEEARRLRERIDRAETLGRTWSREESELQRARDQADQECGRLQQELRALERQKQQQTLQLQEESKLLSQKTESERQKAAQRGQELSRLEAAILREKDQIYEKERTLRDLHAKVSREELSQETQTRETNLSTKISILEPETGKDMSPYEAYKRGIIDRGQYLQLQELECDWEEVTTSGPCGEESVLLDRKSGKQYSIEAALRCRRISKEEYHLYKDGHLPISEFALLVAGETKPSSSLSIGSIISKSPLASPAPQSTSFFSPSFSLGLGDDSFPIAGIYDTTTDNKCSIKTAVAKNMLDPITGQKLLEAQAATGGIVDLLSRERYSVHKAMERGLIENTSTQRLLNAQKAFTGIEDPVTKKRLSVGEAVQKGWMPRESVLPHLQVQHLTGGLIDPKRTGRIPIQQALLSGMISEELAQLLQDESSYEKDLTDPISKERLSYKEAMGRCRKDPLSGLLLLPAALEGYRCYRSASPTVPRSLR
UniProt O60437: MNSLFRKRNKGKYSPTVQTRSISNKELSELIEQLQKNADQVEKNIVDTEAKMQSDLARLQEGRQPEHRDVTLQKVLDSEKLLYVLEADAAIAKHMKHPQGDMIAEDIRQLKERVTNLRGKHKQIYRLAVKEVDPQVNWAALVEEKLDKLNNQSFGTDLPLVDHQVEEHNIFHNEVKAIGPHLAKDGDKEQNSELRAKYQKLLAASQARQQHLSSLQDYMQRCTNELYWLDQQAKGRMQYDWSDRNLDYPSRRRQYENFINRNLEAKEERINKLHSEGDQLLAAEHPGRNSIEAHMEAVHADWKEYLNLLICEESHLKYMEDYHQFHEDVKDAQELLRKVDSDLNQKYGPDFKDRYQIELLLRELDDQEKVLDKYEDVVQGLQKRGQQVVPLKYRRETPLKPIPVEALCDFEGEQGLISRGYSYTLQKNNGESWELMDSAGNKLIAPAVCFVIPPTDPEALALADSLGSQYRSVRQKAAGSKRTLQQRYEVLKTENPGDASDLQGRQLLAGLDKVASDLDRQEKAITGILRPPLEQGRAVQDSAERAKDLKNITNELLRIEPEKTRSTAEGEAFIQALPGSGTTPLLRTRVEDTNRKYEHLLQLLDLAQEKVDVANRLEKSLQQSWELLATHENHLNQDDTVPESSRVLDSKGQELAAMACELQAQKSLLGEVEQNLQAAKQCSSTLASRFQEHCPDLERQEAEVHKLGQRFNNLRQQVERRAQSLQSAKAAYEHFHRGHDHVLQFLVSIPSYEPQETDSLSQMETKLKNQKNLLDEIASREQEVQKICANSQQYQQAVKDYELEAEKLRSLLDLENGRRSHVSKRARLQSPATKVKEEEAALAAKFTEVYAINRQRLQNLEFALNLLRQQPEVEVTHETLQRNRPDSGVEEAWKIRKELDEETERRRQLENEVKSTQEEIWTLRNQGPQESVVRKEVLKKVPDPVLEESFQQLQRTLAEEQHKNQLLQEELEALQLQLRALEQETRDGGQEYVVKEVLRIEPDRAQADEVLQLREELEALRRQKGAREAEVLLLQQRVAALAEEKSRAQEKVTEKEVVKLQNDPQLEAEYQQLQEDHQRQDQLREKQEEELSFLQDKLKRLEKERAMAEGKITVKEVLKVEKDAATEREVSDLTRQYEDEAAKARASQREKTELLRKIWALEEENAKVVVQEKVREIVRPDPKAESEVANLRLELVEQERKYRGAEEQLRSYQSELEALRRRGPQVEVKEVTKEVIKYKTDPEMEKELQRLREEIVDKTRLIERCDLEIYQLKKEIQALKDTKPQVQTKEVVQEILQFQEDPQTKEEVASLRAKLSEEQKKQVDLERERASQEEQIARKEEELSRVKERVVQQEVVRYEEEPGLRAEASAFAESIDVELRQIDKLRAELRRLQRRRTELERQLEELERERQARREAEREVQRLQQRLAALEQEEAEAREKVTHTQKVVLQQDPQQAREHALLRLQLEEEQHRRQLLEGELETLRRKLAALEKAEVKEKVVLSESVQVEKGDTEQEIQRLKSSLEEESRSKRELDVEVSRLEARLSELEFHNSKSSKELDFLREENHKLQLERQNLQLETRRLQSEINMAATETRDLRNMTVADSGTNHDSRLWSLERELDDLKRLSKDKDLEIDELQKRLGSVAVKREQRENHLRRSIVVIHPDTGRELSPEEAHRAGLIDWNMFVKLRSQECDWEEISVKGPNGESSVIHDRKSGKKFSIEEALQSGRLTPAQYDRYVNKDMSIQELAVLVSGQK

Row | binding | Substance
1 | binds | envoplakin, endogenous in human skin organoids (from UniProt Q92817 1-2033)
2 | binds | periplakin, endogenous in human skin organoids (from UniProt O60437 1-1756)
